Test results published in paper PMC5829739.

System: PCBP complex (PCBP1/PCBP2, isoform not resolved) (Homo sapiens (K562))
Experiment: EMSA
Conditions: heparin, 10 mM Tris-HCl pH 7.4, 150 mM KCl, 1.5 mM MgCl2, 0.5 mM DTT, room temperature 20 min, 5 ng probe, 30 ug K562 S100 extract, 20 ul, then 1 ul heparin (50 mg/ml) for 10 min, protein in an extract, label: 5'-32P
[1] = legend: disrupts PCBP complex formation

Sequence | binding result | binding result [1] | other results
ACCCCGCCCCUCCCUAUUCCCGUCCCUCAG [CDK2-WT-5'] | binds | – | –
ACCCUAUAAACCACCCCCCCCCCCCCCCAG [CDK2-13C] | – | – | binding result (strong complex): binds
ACUUCGCUUCUGCCUAUUCCCGUCCCUCAG [CDK2-Mut3] | – | binds more weakly | –
ACUUCGCUUCUGCCUAUUUCCGUUCCUCAG [CDK2-Mut4] | – | binds more weakly | –
ACUUCGCUUCUGCCUAUUUUUGUUUUUCAG [CDK2-Mut1] | no binding | – | –
UGUAAGCCCUGUUGUCUUCUUGUUCCCCAG [mCDK2-WT (mWT-5')] | no binding | – | –

The exact form of at least one protein or probe is not confirmed. At least one result comes from cells or an extract, where the contact may be indirect. A negative result means that nothing was seen under these conditions. A weaker result is weaker than the reference pair of the same experiment.
